This note sets out measurements from the supplement of paper PMC10849652.

Sequences of proteins named here, by UniProt entry; tags and fusion partners are left off. A change or cut given only in a name is not applied to a line headed by its entry.
UniProt O60869: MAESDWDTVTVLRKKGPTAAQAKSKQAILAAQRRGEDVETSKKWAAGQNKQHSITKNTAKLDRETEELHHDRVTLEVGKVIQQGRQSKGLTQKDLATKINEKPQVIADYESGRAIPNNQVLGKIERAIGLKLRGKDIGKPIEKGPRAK
UniProt Q96C19: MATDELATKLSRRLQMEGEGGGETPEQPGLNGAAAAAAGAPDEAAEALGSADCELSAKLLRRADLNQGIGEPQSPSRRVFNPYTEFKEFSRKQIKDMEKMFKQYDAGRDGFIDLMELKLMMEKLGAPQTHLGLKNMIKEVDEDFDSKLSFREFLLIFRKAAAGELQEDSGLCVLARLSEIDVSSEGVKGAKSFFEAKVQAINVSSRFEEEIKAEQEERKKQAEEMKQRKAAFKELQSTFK
UniProt Q6V1X1: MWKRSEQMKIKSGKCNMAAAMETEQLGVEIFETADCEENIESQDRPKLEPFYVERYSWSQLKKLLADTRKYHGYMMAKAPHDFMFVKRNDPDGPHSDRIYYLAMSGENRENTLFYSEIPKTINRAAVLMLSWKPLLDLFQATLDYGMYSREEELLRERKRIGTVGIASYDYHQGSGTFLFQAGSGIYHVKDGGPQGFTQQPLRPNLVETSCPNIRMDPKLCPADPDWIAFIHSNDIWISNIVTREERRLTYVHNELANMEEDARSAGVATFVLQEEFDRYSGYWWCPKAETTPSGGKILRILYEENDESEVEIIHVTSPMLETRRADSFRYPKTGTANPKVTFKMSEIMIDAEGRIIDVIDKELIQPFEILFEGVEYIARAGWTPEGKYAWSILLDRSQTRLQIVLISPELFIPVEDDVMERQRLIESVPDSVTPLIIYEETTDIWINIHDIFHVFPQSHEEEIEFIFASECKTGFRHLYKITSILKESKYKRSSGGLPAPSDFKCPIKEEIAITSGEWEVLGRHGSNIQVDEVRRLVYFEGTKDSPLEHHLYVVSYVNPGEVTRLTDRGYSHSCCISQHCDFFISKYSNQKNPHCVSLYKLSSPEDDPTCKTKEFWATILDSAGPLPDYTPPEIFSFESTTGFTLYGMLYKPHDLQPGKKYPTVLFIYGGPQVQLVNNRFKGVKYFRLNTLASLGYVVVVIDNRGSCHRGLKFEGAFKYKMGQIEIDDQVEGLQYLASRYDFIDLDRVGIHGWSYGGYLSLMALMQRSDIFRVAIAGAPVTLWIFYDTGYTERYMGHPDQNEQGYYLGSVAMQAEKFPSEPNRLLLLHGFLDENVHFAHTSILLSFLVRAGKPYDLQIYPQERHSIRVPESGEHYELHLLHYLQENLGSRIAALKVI
UniProt O95620: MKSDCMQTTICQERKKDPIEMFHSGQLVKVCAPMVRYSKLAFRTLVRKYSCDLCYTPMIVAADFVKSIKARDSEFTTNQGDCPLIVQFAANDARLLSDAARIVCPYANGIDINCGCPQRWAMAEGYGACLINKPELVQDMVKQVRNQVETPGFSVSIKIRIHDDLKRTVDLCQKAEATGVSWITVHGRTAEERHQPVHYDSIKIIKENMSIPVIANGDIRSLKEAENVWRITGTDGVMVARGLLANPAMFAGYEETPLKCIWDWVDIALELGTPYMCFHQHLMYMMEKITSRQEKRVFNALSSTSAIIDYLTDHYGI
UniProt O43324: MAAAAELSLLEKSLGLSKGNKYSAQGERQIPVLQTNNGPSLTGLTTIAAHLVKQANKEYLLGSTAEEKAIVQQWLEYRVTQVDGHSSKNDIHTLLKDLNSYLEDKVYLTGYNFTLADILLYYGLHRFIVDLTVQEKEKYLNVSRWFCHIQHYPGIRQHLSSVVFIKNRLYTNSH
UniProt Q15029: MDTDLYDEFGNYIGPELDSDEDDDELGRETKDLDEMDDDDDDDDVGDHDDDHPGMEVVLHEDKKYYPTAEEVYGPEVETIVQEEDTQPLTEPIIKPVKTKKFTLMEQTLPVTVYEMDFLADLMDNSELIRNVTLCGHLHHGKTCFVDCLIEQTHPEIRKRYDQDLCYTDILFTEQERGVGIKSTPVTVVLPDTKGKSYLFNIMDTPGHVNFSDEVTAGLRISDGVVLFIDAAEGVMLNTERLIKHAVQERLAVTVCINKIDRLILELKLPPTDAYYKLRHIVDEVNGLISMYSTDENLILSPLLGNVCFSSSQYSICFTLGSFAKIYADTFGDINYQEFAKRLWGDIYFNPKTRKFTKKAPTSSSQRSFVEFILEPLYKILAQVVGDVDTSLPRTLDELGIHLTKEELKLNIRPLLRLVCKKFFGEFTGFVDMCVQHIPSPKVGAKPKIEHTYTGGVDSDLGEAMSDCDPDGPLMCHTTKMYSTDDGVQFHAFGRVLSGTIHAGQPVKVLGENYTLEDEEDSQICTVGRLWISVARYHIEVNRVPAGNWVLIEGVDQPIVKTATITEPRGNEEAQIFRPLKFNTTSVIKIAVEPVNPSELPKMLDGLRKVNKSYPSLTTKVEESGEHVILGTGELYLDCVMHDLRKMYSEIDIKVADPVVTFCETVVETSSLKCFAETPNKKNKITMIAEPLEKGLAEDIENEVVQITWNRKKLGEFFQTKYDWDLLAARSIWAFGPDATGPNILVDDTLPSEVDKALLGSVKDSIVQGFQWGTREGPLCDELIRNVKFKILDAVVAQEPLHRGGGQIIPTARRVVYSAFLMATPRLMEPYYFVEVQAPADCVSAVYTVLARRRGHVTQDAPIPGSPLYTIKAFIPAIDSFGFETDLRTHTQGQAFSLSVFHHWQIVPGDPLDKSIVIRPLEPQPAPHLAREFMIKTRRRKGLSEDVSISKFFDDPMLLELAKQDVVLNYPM
UniProt Q9BY44: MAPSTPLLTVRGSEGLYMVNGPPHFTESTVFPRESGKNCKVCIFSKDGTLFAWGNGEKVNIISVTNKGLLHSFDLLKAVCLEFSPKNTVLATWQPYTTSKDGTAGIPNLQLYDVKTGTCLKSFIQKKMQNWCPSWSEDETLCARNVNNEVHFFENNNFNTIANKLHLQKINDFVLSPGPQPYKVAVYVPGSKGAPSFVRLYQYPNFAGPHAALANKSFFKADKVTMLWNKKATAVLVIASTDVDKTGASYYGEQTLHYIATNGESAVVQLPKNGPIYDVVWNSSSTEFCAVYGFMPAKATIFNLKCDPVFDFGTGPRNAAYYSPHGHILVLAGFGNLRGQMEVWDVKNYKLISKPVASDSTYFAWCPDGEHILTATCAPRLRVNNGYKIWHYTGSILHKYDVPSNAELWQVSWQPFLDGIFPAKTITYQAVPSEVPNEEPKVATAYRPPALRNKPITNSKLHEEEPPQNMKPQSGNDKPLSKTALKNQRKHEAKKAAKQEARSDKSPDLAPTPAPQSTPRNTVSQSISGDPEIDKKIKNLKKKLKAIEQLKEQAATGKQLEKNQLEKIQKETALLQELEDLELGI
EEF1AKMT2, A0A494BZY7, UniProt A0A494BZY7, whole entry, looked up: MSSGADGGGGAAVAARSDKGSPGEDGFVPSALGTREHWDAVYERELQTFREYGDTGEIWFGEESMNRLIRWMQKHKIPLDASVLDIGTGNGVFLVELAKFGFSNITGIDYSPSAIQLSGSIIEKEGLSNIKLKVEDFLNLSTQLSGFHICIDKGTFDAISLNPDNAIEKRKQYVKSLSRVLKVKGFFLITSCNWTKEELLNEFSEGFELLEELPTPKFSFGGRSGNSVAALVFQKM
UniProt Q96G46: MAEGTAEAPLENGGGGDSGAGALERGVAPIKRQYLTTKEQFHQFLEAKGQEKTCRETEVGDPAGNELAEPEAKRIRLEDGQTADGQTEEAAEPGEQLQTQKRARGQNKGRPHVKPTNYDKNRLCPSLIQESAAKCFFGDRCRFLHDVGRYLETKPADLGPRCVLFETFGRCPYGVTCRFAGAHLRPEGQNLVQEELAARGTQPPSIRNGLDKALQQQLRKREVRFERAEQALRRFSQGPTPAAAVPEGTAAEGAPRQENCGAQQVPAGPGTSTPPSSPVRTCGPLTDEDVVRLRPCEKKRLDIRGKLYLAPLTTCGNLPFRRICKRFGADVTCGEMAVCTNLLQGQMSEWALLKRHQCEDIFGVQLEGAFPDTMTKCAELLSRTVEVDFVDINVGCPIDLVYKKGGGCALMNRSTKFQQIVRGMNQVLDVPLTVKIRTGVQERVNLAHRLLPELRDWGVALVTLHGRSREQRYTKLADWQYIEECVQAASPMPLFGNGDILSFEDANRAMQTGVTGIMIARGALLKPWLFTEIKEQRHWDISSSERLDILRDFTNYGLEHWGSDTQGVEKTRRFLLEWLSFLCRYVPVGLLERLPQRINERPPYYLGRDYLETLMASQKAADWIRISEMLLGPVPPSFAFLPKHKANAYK
UniProt Q9BVC3, whole entry, looked up: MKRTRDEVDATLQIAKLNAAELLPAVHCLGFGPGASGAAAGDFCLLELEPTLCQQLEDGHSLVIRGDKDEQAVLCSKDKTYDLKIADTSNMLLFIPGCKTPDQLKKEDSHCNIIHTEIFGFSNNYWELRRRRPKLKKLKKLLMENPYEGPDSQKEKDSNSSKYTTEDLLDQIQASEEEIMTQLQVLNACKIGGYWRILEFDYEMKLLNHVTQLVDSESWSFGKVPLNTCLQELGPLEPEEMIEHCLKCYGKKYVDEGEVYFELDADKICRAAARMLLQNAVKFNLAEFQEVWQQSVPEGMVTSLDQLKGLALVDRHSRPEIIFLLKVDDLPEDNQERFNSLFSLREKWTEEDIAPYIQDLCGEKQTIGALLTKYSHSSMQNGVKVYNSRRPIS
UniProt Q8NDI1: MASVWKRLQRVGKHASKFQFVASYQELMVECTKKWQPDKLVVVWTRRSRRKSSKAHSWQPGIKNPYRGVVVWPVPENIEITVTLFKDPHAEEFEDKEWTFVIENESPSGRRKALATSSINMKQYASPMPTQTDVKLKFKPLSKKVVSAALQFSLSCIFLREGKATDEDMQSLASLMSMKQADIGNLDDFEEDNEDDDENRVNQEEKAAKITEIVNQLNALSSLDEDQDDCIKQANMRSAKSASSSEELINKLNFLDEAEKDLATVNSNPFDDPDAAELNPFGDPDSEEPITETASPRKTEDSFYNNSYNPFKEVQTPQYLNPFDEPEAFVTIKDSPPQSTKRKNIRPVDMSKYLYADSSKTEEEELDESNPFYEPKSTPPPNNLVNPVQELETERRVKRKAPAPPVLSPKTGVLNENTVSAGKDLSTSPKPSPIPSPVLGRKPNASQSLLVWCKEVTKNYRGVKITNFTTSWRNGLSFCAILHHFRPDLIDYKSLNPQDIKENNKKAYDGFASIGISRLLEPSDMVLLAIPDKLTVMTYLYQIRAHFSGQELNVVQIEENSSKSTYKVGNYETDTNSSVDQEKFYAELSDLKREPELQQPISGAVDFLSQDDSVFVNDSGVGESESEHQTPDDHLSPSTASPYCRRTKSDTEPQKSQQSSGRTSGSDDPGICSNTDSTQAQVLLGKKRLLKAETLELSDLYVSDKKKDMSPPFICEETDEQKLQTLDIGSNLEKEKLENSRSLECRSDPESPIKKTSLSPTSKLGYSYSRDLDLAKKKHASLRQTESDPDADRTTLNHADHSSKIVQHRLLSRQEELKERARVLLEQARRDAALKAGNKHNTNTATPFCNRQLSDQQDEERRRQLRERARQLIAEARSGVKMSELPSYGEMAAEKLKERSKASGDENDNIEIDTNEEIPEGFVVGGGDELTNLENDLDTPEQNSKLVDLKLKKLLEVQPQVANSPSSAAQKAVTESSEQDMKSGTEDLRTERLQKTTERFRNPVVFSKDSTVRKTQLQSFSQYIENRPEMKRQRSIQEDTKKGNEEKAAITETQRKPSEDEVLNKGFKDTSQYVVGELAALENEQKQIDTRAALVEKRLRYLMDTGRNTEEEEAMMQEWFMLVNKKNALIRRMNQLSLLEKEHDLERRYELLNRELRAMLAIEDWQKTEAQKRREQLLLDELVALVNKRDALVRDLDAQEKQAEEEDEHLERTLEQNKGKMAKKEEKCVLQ
UniProt Q8WWZ3: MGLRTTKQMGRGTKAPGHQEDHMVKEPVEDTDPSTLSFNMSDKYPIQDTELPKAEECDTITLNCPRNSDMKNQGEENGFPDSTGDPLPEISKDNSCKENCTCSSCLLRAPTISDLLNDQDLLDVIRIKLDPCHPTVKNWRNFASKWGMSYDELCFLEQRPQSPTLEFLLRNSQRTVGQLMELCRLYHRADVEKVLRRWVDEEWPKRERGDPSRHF
UniProt Q9BUP0: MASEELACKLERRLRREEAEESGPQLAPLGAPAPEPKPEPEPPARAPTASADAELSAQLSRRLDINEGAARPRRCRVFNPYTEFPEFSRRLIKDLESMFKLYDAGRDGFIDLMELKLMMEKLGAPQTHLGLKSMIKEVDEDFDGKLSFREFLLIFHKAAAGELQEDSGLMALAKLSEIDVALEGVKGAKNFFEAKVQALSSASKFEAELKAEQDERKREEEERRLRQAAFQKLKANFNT
UniProt P23919: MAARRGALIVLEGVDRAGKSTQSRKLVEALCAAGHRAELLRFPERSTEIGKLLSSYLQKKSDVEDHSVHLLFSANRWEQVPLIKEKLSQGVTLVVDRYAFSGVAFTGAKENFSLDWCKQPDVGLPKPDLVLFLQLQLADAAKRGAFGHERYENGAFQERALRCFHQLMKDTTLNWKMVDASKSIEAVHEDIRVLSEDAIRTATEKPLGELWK
UniProt Q96FJ2, whole entry, looked up: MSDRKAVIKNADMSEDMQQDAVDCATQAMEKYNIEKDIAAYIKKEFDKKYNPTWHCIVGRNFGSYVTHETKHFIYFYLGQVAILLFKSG

The list shows a part of the results.

Compound in this assay: C1=CC2=NC=CN=C2C=C1/C=C/3\C(=O)NC(=O)S3
The experiment in a line: log2 fold change, soluble protein after heating vs DMSO (PISA); higher = thermal stabilisation; K562 lysate, 10 uM; active = over 0.2 and 3.5 SD of the protein, either way, in both replicates (recomputed). A digest of the protocol:
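Thermal stability, expressed as log-two fold change relative to solvent controls, is given from duplicates. Crude K562 extract in PBS pH 7.4 with 1 mM MgCl2, at 1 mg/mL protein, was treated with 10 μM compound for 30 min and heated in aliquots for 3 min across 48°C-58°C. After pooling, adjustment to 0.5% NP-40 at 4°C and centrifugation at 21,000xg for 90 min, supernatant protein was measured by TMTpro 16plex LC-MS/MS with channel sums equalised.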
With EIF1B (UniProt O60739), the log2 fold change is inactive: -0.132.

For the target EDF1 (UniProt O60869), the log2 fold change was inactive: -0.002.

For the target DRAP1 isoform 2 (UniProt Q14919), the log2 fold change was inactive: -0.002.

In the case of E2F4 (UniProt Q16254), the log2 fold change was inactive: 0.029.

EFHD2 (UniProt Q96C19): the log2 fold change is inactive: 0.018.

Turning to DPP8 (UniProt Q6V1X1), the log2 fold change is inactive: -0.046.

Turning to DSN1 (UniProt Q9H410), the log2 fold change was inactive: 0.01.

Turning to DUS4L (UniProt O95620), the log2 fold change was inactive: -0.034.

For EEF1E1 (UniProt O43324), the log2 fold change was inactive: -0.007.

For the target DYM (UniProt Q7RTS9), the log2 fold change is inactive: 0.015.

On to EFTUD2 (UniProt Q15029), for which the log2 fold change was inactive: -0.01.

EIF2A (UniProt Q9BY44): the log2 fold change is inactive: 0.008.

For EEF1AKMT2, A0A494BZY7, the log2 fold change was inactive: -0.018.

In the case of DPY19L1, A0A1B0GW05, the log2 fold change is inactive: -0.024.

With EDEM1 (UniProt Q92611), the log2 fold change is inactive: 0.014.

As to DPYSL2 (UniProt Q16555), the log2 fold change is inactive: 0.04.

In the case of DUS3L (UniProt Q96G46), the log2 fold change is inactive: 0.013.

For the target DSCC1 (UniProt Q9BVC3), the log2 fold change is inactive: 0.127.

As to EHBP1 isoform 2 (UniProt Q8NDI1), the log2 fold change was inactive: -0.079.

EDARADD (UniProt Q8WWZ3): the log2 fold change is inactive: -0.027.

As for EFHD1 (UniProt Q9BUP0), the log2 fold change is inactive: -0.032.

As to DTYMK (UniProt P23919), the log2 fold change was inactive: 0.024.

For the target DYNLL2 (UniProt Q96FJ2), the log2 fold change was inactive: 0.019.

On to DPH7 (UniProt Q9BTV6), for which the log2 fold change was inactive: 0.02.
